Data reported in paper PMC6070450 (EJNMMI Research, 2018).
Some peptides are written in HELM: one residue between dots, names in brackets for other building blocks, links after the first $.

Test: general procedure: Fmoc solid-phase peptide synthesis; Rink-Amide methylbenzylhydryl (MBHA) resin; DIC/HOBt
Details: whole synthesis, analytical reversed phase HPLC

| Substance | final HPLC purity [%] |
| --- | --- |
| HYNIC-(4-Cl)-Phe-Cyclo(D-Cys-Tyr-D-Trp-Lys-Thr-Cys)-D-Tyr-NH2 | 97 |
| PEPTIDE1{[N4].[4ClPhe].[dC].Y.[dW].K.T.C.[dY].[am]}$PEPTIDE1,PEPTIDE1,3:R3-8:R3$$$V2.0 | 98 |
| PEPTIDE1{[DOTA].[4ClPhe].[dC].Y.[dW].K.T.C.[dY].[am]}$PEPTIDE1,PEPTIDE1,3:R3-8:R3$$$V2.0 | 99.5 |
